Measured values from PubChem BioAssay AID1471 (National Center for Advancing Translational Sciences (NCATS), 2008).
Hit rate of the full screen: of about 230,000 compounds, about 310 (0.13%) were called active. The inconclusive results got no clear call from the source; some entries with a clear call stand among them for comparison. Calls come from the whole dose curve; as a rule, active = well fitted activation curve with a large enough effect; inconclusive = small, poorly fitted or top-dose-only effect; inactive = no such curve, though single readings can be large or run the other way. Potencies beside an inconclusive call are fits to weak or partial responses and may not hold up.
Potency is the fitted concentration of half-maximal effect.

Assay: qHTS Multiplex Assay to Identify Dual Action Probes in a Cell Model of Huntington: Cytoprotection (ATP); note: nearly all actives have a fitted effect of over 45% in size;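 for cytoprotection (ATP increase): toxic huntingtin expression switched on by the ecdysone agonist tebufenozide; % of control where 0% means no effect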
Conditions: PC12 HTT-Q103 induced, ATP luminescence, 40 h; cytoprotection (ATP increase): at 56.4 µM (top of the series) unless noted
Method in brief: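 Cells were plated at 1500 per well in phenol red-free DMEM with 5% equine and 5% calf serum. Tebufenozide (100 nM final) and compounds were added, then ATPlite reagent, and luminescence was read.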
For `CC1=C(C)CS(=O)N(c2ccc(S(N)(=O)=O)cc2)C1` (stereo unspecified), the Potency was inconclusive: 39800 nM [activator, single point]. With `O=C(CCS(=O)(=O)c1ccccc1)Nc1ccc2c(c1)C(=O)NC2=O` the Potency was inconclusive: 5620 nM [activator, single point]. With `Cc1ccc(NC(=O)CN2C(=O)NC(C)(c3ccc(Cl)cc3)C2=O)cc1S(=O)(=O)N1CCOCC1` (stereo unspecified) the Potency was inconclusive: 3550 nM [activator, single point]. With `OC(Cn1cncn1)(Cn1cncn1)c1ccc(F)cc1F` the Potency was inconclusive: 708 nM [activator, single point]. In the case of `Cc1ccc(N2C(=O)NC(NC(=O)C(C)(C)C)(C(F)(F)F)C2=O)cc1` (stereo unspecified), the cytoprotection (ATP increase) is reported as inactive: -3% [at 10 µM]. For `C/C(=N\Nc1ccc(S(=O)(=O)Nc2ccc(Cl)cc2)cc1[N+](=O)[O-])c1ccc(N2CCOCC2)cc1`, the Potency was inconclusive: 3550 nM [activator, single point]. In the case of `O=C(NC(=S)Nn1cnnc1)c1ccccc1Cl`, the Potency is reported as inconclusive: 5620 nM [activator, single point]. With `O=C(NCc1ccc2c(c1)OCO2)c1cccc(F)c1` the Potency was “inactive”. With `Oc1cccc(NC(=S)Nc2ccc(SC(F)F)cc2)c1` the cytoprotection (ATP increase) was inactive: 8.68% [at 10 µM]. In the case of `COc1cccc(-c2nnn(CC(=O)NC3CCCC3)n2)c1OC`, the Potency is reported as inconclusive: 6310 nM [activator, single point]. In the case of `CC(C)CC(C(=O)OCC(=O)Nc1cccc(Cl)c1)N1C(=O)C2CC=CCC2C1=O` (stereo unspecified), the Potency is reported as inconclusive: 2240 nM [activator, partial curve, poor fit]. With `CC(=O)Nc1ccc(Nc2ncnc3c2cnn3-c2ccc(C)cc2C)cc1` the Potency was “inactive”. For `C=CCOc1c2ccc(C(=O)NCc3ccccc3OC)cc2nn1C`, the Potency was “inactive”. In the case of `Cc1cc2c(N)cccc2nn1`, the Potency is reported as “inactive”. With `Cc1nn(-c2ccccc2)c(C)c1[N+](=O)[O-]` the Potency was “inactive”. In the case of `CCN(CC)C(=O)Cn1cc(C(=O)C(=O)N2CCCc3ccccc32)c2ccccc21`, the Potency is reported as inconclusive: 56.2 nM [activator, partial curve]. For `COc1ccc(S(=O)(=O)Nc2ccccc2C(=O)Nc2nc(-c3ccc(F)cc3)cs2)cc1OC`, the Potency was inconclusive: 89.1 nM [activator, full curve, poor fit]. In the case of `CCOC(=O)c1c(-c2ccc(C)o2)csc1NC(=S)NC(=O)c1cccs1`, the cytoprotection (ATP increase) is reported as inactive: 28.5% [at 10 µM]. For `CCc1cc(C(=O)NNC(=O)CCl)sc1C`, the Potency was inconclusive: 100 nM [activator, partial curve, poor fit]. In the case of `NS(=O)(=O)c1cc(C2(O)NC(=O)c3ccccc32)ccc1Cl` (stereo unspecified), the Potency is reported as inconclusive: 5.6 nM [activator, full curve, poor fit]. In the case of `COc1ccc(N/C=C2/CCCCC2=O)cc1`, the Potency is reported as active: 20000 nM. With `C#CCOC(=O)C(NC(=O)c1ccccc1)=C1CCCCC1` the Potency was inconclusive: 2820 nM [activator, partial curve]. For `CCc1ccc(OCC(=O)NC(C)C)cc1`, the Potency was inconclusive: 708 nM [activator, single point]. In the case of `COc1ccccc1-c1nc(C#N)c(NCCCn2ccnc2)o1`, the Potency is reported as inconclusive: 1120 nM [activator, single point]. With `COc1ccc2oc(C(=O)C3CC3)c(NC(=O)CCCN3C(=O)c4ccccc4C3=O)c2c1` the Potency was “inactive”. For `Cc1cc(C(=O)NCCC2=CCCCC2)ccc1[N+](=O)[O-]`, the cytoprotection (ATP increase) was inactive: -3.33% [at 10 µM]. For `Cc1noc(C)c1C(=O)N1CCC2(CC1)CCN(c1ncccn1)CC2`, the Potency was inconclusive: 10000 nM [activator, partial curve]. In the case of `O=C(CCCN1CCN2CCCC2C1)c1ccc(F)cc1` (stereo unspecified), the Potency is reported as inconclusive: 3160 nM [activator, single point]. For `C=C(C)COc1ccc(-c2[nH]ncc2-c2ccccc2OC)c(O)c1`, the cytoprotection (ATP increase) was inactive: 2.42% [at 0.074 µM]. For `O=C(O)CCCCCCCC(=O)O`, the Potency was inconclusive: 31600 nM [activator, single point]. In the case of `COc1ccc(C2C3=C(CC(C)(C)CC3=O)Nc3c2c(=O)[nH]c(=O)n3Cc2ccccc2)cc1OC` (stereo unspecified), the cytoprotection (ATP increase) is reported as inactive: 27.8% [at 10 µM]. With `COc1ccccc1CNC(=O)c1ccccc1OCc1ccc(F)cc1` the Potency was inconclusive: 5620 nM [activator, single point]. In the case of `CCCCN(CCCC)CCCOC(=O)c1ccc(N)cc1`, the Potency is reported as inconclusive: 316 nM [activator, single point]. With `CCN(CC)S(=O)(=O)c1ccc(N2CCOCC2)c(NC(=O)c2ccc(NC(C)=O)cc2)c1` the cytoprotection (ATP increase) was inactive: 13% [at 10 µM]. With `Cc1cc(C)nc(N(C#N)S(=O)(=O)c2ccccc2Cl)n1` the Potency was inconclusive: 891 nM [activator, partial curve]. With `CN(C)Cc1ccccc1-c1cncnc1NC1CC1` the Potency was “inactive”. In the case of `CCc1ccc(N/C(N)=N/c2nc(CSc3ccccn3)cc(=O)[nH]2)cc1`, the Potency is reported as inconclusive: 6310 nM [activator, single point]. With `Cc1cccc(Nc2nnc(SC/C(O)=C(\C#N)c3nc4ccccc4[nH]3)s2)c1` the cytoprotection (ATP increase) was inactive: 10.5% [at 10 µM]. For `COc1ccc(/C=N/NC(=S)SC)cc1OC`, the cytoprotection (ATP increase) was inactive: -1.77% [at 10 µM]. With `CC(C)NC[C@H](O)c1ccc(NS(C)(=O)=O)cc1` the Potency was inconclusive: 112 nM [activator, partial curve, poor fit]. With `CCCCCCCC/C=C\C/C=C\C/C=C\CCCC(=O)NCCO` the Potency was “inactive”. With `COc1cc([N+](=O)[O-])ccc1NC(=O)C[n+]1cccc(C)c1` the cytoprotection (ATP increase) was inactive: 22.4% [at 10 µM]. In the case of `N#C/C(=C\c1cn(-c2ccccc2)nc1-c1cc2ccccc2o1)c1nc2ccccc2[nH]1`, the cytoprotection (ATP increase) is reported as inactive: -8.59% [at 10 µM]. In the case of `COc1ccc(N2CCN(C(=O)c3cccc(N4C(=O)C5CC=CC(C)C5C4=O)c3)CC2)cc1` (stereo unspecified), the Potency is reported as inconclusive: 3980 nM [activator, single point]. In the case of `COc1cc2nncc(SCc3ccc(Cl)c(Cl)c3)c2cc1OC`, the cytoprotection (ATP increase) is reported as inactive: -6.24% [at 10 µM]. With `Cc1ccc(S(=O)(=O)N2CCOCC2)cc1C(=O)Nc1cccc(S(=O)(=O)N2CCCC2)c1` the Potency was inconclusive: 316 nM [activator, partial curve].
